{"sequences": {"note": "Sequences of proteins named here, by UniProt entry; tags and fusion partners are left off.", "UniProt Q5AAJ8, whole entry, looked up": "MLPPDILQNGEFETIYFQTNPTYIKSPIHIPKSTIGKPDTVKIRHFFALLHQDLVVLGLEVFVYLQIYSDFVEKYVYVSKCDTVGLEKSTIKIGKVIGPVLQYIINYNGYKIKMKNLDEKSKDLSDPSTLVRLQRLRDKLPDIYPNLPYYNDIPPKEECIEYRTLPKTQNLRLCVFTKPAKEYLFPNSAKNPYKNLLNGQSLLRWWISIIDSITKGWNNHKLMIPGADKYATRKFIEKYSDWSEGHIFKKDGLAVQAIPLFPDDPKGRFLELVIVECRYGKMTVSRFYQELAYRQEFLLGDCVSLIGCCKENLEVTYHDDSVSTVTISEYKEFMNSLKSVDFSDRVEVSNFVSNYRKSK"}, "source": "PubChem BioAssay AID540336", "about": "(Broad Institute, 2011)", "note": "Among all 330,000 compounds or so, about 520 (0.16%) were called active. The shares of active, inactive and inconclusive entries below differ from those in the screen.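 Rule for the calls: active = inhibition of at least 50% in every replicate; inconclusive = best replicate reaches 50% inhibition but some replicates fall short; inactive = the rest.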"}
{"target": "Histone acetyltransferase RTT109 (Candida albicans (strain SC5314 / ATCC MYA-2876)) (UniProt Q5AAJ8)", "test": "Rtt109-Vps75 histone acetyltransferase blockade – biochemical, ThioGlo CoA-SH fluorescence, plate reader, primary screen (AID 540336)", "settings": "purified Rtt109/Vps75, ThioGlo CoA-SH fluorescence, 4 h; at 34.9 µM; active compounds read high"}
{"smiles": "c1ccc(CCN=C2CCCc3c2[nH]c2ccccc32)cc1", "inhibition": "inconclusive: 34%"}
{"smiles": "C#CC(=O)N(c1ccc(OC)cc1OC)C(C(=O)NC1CCCC1)c1cccs1", "note": "(configuration not stated)", "inhibition": "inconclusive: 24.2%"}
{"smiles": "CCCOC(=O)c1cc(-c2ccc(/C=C3/C(=O)N(C)C(=O)C(C#N)=C3C)o2)ccc1Cl", "inhibition": "inactive: 18.7%"}
{"smiles": "COC1=CC(=O)C=C(OC)C1=O", "inhibition": "inconclusive: 103%"}
{"smiles": "O=S(=O)(Nc1ccccc1O)c1ccc(Cl)nc1", "inhibition": "inconclusive: 28.1%"}
{"smiles": "CCCN(CC(=O)Nc1ccccc1C)C(=O)c1ccc(Cl)c(S(=O)(=O)N2CCCC2)c1", "inhibition": "inconclusive: 20.2%"}
{"smiles": "CC(C(=O)NC1C=CS(=O)(=O)C1)N1C(=O)/C(=C/c2ccc(Cl)cc2)SC1=S", "note": "(configuration not stated)", "inhibition": "active: 139%"}
{"smiles": "CSc1c(SCc2ccccc2)cnn(-c2ccccc2)c1=O", "inhibition": "active: 58.1%"}
{"smiles": "CC(Oc1ccc(F)cc1)C(=O)Oc1ccc(N(C)S(=O)(=O)c2ccccc2)cc1", "note": "(configuration not stated)", "inhibition": "inconclusive: 29.7%"}
{"smiles": "Cc1cccc(N2CCN(C(=O)c3ccc4c(c3)OCCO4)CC2)c1C", "inhibition": "inconclusive: 27.9%"}
{"smiles": "O=C(Nc1ccc(S(=O)(=O)N2CCCCC2)cc1)c1ccc(CN2CCc3ccccc3C2)cc1", "inhibition": "inconclusive: 46.5%"}
{"smiles": "CCOC(=O)C1=C(C)NC(=S)N(C(C)=O)C1c1ccc(Cl)cc1", "note": "(configuration not stated)", "inhibition": "active: 62.6%"}
{"smiles": "CC1(C)Cc2c(sc3nc(-c4ccccc4)n(N)c(=O)c23)CO1", "inhibition": "inactive: 5.44%"}
{"smiles": "CC1Cc2ccccc2N1S(=O)(=O)c1cccc(C(=O)N2CCN(c3ncccn3)CC2)c1", "note": "(configuration not stated)", "inhibition": "inactive: 29.6%"}
{"smiles": "O=[N+]([O-])c1ccc2nc(-c3ccncc3)[nH]c2c1", "inhibition": "inactive: -5.65%"}
{"smiles": "Cc1cccnc1NC(=O)c1ccc(Cl)c(S(=O)(=O)N2CCCCCC2)c1", "inhibition": "inactive: -3.85%"}
{"smiles": "CCCCCCCCNC1=CC(=O)CC(C)(C)C1", "inhibition": "inconclusive: 35.4%"}
{"smiles": "CCOc1cc(CO)cc(Br)c1OCC(=O)O", "inhibition": "inconclusive: 31.5%"}
{"smiles": "C(=N\\N1CCN(C2c3ccccc3-c3ccccc32)CC1)/c1cccnc1", "inhibition": "inactive: 11.7%"}
{"smiles": "COc1ccccc1-n1c(C)cc(/C=C2/C(=N)N3C(=NC2=O)SN=C3S(C)(=O)=O)c1C", "inhibition": "inconclusive: 36.7%"}
{"smiles": "CCOC(=O)c1ccc(NC(=S)NN)cc1", "inhibition": "inconclusive: 39.6%"}
{"smiles": "Cn1c(N/N=C/c2cccs2)nc2c1c(=O)n(Cc1ccccc1)c(=O)n2C", "inhibition": "inconclusive: 23.6%"}
{"smiles": "CC(=NNC(=S)N1CC2CCC(CC2)C1)c1ccncn1", "inhibition": "inactive: -1.16%"}
{"smiles": "COc1ccc(Cn2cc(C(=O)c3ccccc3)c(=O)c3cc(OC)ccc32)cc1", "inhibition": "inactive: 3.93%"}
{"smiles": "CC(C)N(CCNCC(O)COc1ccc(C(C)(C)c2ccccc2)cc1)C(C)C", "note": "(configuration not stated)", "inhibition": "inconclusive: 50%"}
{"smiles": "CC(=O)c1cccc(S(=O)(=O)Nc2cccnc2)c1", "inhibition": "inconclusive: 30.7%"}
{"smiles": "Cc1ccc(/C=C2\\SC(=S)N(C(Cc3ccccc3)C(=O)O)C2=O)cc1", "note": "(configuration not stated)", "inhibition": "active: 62%"}
{"smiles": "Cc1cc(C)c2c(-n3cccc3)c(C(=O)NNS(=O)(=O)c3ccc(Br)cc3)sc2n1", "inhibition": "inconclusive: 37.7%"}
{"smiles": "O=c1cc2c(nn1Cc1ccc(Cl)cc1)-c1ccccc1CC2", "inhibition": "inactive: 1.4%"}
{"smiles": "CCC(=O)N1N=C(c2cccs2)CC1c1ccco1", "note": "(configuration not stated)", "inhibition": "inconclusive: 28.1%"}
{"smiles": "Nc1c(C(=O)O)cnn1-c1ccc([N+](=O)[O-])cc1", "inhibition": "inconclusive: 31.6%"}
{"smiles": "CCOC(=O)C1=C(C)N=c2s/c(=C/c3ccc(OCC(=O)O)cc3)c(=O)n2C1c1cc(OC)c(OC)c(OC)c1", "note": "(configuration not stated)", "inhibition": "active: 68.3%"}
{"smiles": "C=CCNCC(=O)N1N=C(c2ccc3ccccc3c2)CC1c1ccc(OC)cc1", "note": "(configuration not stated)", "inhibition": "inconclusive: 51.4%"}
{"smiles": "COc1ccc(-c2ccc(CCC(=O)O)o2)cc1", "inhibition": "active: 57.6%"}
{"smiles": "CNCc1ccccc1Sc1ccc(O)c(O)c1", "inhibition": "inactive: 13.2%"}
{"smiles": "CN(C)CCCn1c(SCC(=O)N2c3ccccc3Sc3ccccc32)nc2ccccc2c1=O", "inhibition": "inconclusive: 44.6%"}
{"smiles": "C#CCOCCOCCOCCNc1nc(N2CCN(C(=O)Cn3cc(CCO)nn3)CC2)nc(N2CCN(C(=O)[C@H]([C@@H](C)CC)n3cc(CCCCN)nn3)CC2)n1", "inhibition": "inconclusive: 34.9%"}
{"smiles": "Cc1ccc(NS(=O)(=O)c2ccc3c(c2)CC(=O)N3)cc1F", "inhibition": "inconclusive: 18%"}
{"smiles": "Cc1c(Cc2ccccc2)c(=O)oc2cc(OCC(=O)N[C@@H](Cc3ccccc3)C(=O)O)ccc12", "inhibition": "inactive: 2.09%"}
{"smiles": "CSc1ccc(S(=O)(=O)Nc2ccc(F)cc2)cc1", "inhibition": "inactive: 4.46%"}
{"smiles": "Cc1cc(C)n2nc(C(=O)OCC(=O)N3C(C)CCCC3C)nc2n1", "note": "(configuration not stated)", "inhibition": "inactive: 2.41%"}
{"smiles": "O=C(NCC(c1ccco1)N1CCCC1)c1cccc(S(=O)(=O)N2CCOCC2)c1", "note": "(configuration not stated)", "inhibition": "inconclusive: 21%"}
{"smiles": "C=CCn1cnc2c(nnn2-c2cc(C)cc(C)c2)c1=O", "inhibition": "inactive: 3.84%"}
{"smiles": "COc1cc(NC(C)CCCN)c2ncccc2c1", "note": "(configuration not stated)", "inhibition": "inconclusive: 46.7%"}
{"smiles": "C[C@H](O)[C@@H]1C(=O)N2CCc3ccc(-c4cccc(F)c4)cc3[C@@H]2C[C@@H]1N(C)C(=O)Nc1ccccc1", "inhibition": "inactive: -4.62%"}
{"smiles": "CCOC(=O)c1c(NC(=O)CSc2nc3ccc(C)cc3[nH]2)sc2c1CC(C)(C)NC2(C)C", "inhibition": "inconclusive: 38.5%"}
{"smiles": "Cc1ccc(-n2c(O)c(C=NCc3ccccn3)c3ccccc3c2=O)cc1C", "inhibition": "active: 61.7%"}
{"smiles": "NC(N)=N/N=C/c1ccc(OCc2ccc(Cl)cc2)cc1", "inhibition": "inconclusive: 35.1%"}
{"smiles": "Cc1ccc(C(C(=O)NC(C)(C)C)N(C(=O)CCC(=O)Nc2ccccn2)c2ccccc2F)cc1", "note": "(configuration not stated)", "inhibition": "inconclusive: 41.1%"}
{"smiles": "Cc1[nH]c(=S)c(C#N)c(-c2ccco2)c1C(=O)N(C)C", "inhibition": "inconclusive: 31.4%"}
{"smiles": "O=C(Nc1ccnn1C1CCNCC1)c1ccc2c(c1)OCO2", "inhibition": "inconclusive: 32.4%"}
{"smiles": "COC(=O)/C(=C/c1ccco1)NC(=O)c1ccccc1", "inhibition": "inconclusive: 34.3%"}
{"smiles": "Cc1nn(-c2ccc(F)cc2)c(C)c1CN1CCN(Cc2ccccc2)C(CCO)C1", "note": "(configuration not stated)", "inhibition": "inconclusive: 24.5%"}
{"smiles": "COc1ccc(NC(=O)CSc2nnc(-c3ccccc3)n2N)cc1", "inhibition": "active: 59.4%"}
{"smiles": "COc1ccc(OC)c(NC(=O)Cc2csc(NC(=O)Nc3ccccc3OC)n2)c1", "inhibition": "inconclusive: 43.1%"}
{"smiles": "C#CCOCCOCCOCCNc1nc(N2CCN(C(=O)[C@H]([C@@H](C)CC)n3cc([C@@H](N)CO)nn3)CC2)nc(N2CCN(C(=O)[C@H](CCCCN)n3cc([C@@H](N)CO)nn3)CC2)n1", "inhibition": "inconclusive: 43.5%"}
{"smiles": "COc1ccc(Cc2nnc(NC(=O)c3cc(OC)c(OC)c(OC)c3)s2)cc1", "inhibition": "active: 54.9%"}
{"smiles": "C#CCOCCOCCOCCNc1nc(N2CCN(C(=O)CCCCCCCCCCNC(=O)[C@H]([C@@H](C)CC)n3cc(CCCCN=C(N)N)nn3)CC2)nc(N2CCN(C(=O)CCCCCCCCCCNC(=O)[C@@H]([C@H](C)O)n3cc(C)nn3)CC2)n1", "inhibition": "inconclusive: 25.5%"}
{"smiles": "Cn1c(C(=O)NCCN2CCc3ccccc3C2)cc2c(=O)n(C)c3ccccc3c21", "inhibition": "inconclusive: 41.3%"}
{"smiles": "C/C=C/C(=O)Nc1cccc(C2=NOC3(C2)C[C@@H](C(N)=O)N(C(=O)C(c2ccccc2)c2ccccc2)C3)c1", "note": "(some centres not stated)", "inhibition": "inconclusive: 26.5%"}
{"smiles": "NC1=NC[C@H](c2ccccc2)N1CCc1cccc(F)c1", "inhibition": "inactive: 5.69%"}
{"smiles": "COc1ccc(-c2nc(Cn3c(SCc4cccc(F)c4)nc4ccncc43)c(C)o2)cc1OC", "inhibition": "inactive: -0.194%"}
{"smiles": "O=C(N/N=C/c1ccc(O)c(O)c1O)/C(=C/c1ccc([N+](=O)[O-])cc1)NC(=O)c1ccccc1", "inhibition": "inconclusive: 64.3%"}
{"smiles": "CC(C)(C)C(=O)[C@@H]1[C@@H]2C(=O)N(C3CCCCC3)C(=O)[C@@H]2[C@H]2c3ccccc3C=CN12", "inhibition": "inconclusive: 44%"}
{"smiles": "CC(C)c1ccc(NC(=O)NC(C)c2ccc3c(c2)OCO3)cc1", "note": "(configuration not stated)", "inhibition": "active: 57.9%"}
{"smiles": "COc1cc(/C=C/C(=O)c2c(O)ccc3c(C)cc(=O)oc23)ccc1O", "inhibition": "inactive: 3.21%"}
{"smiles": "O=C(CCn1nc(-c2ccc(Cl)cc2)ccc1=O)NCCCN1CCCCCC1", "inhibition": "inconclusive: 37.2%"}
{"smiles": "COc1ccc(CNC(=O)CCS(=O)(=O)c2ccc3c(c2)NC(=O)CS3)cc1", "inhibition": "inactive: 1.92%"}
{"smiles": "CCOC(=O)N1CCN(C(=O)c2ccc3nc(C)sc3c2)CC1", "inhibition": "inactive: -3.6%"}
{"smiles": "CCN1CCN(CCNC(=O)c2ccc3c(c2)NC(=O)/C(=C\\c2ccc(OC)c(OC)c2)S3)CC1", "inhibition": "inconclusive: 54.2%"}
{"smiles": "CCOc1cc(S(=O)(=O)NC2CC(C)(C)NC(C)(C)C2)ccc1F", "inhibition": "inconclusive: 26.4%"}
{"smiles": "COc1ccc2c(c1)[nH]c1c(=O)n(CCN3CCCC3)cnc12", "inhibition": "inactive: -11%"}
{"smiles": "CC(C)(C)c1ccc(S(=O)(=O)Nc2cccc(C3OCCCO3)c2)cc1", "inhibition": "inconclusive: 32.4%"}
{"smiles": "Cc1csc(NC(=O)CSc2nc3ccccc3s2)n1", "inhibition": "inactive: 13%"}
{"smiles": "Cc1cc(/C=C2/C(=N)N3C(=NC2=O)SN=C3S(C)(=O)=O)c(C)n1-c1ccccc1F", "inhibition": "inconclusive: 30.4%"}
{"smiles": "COc1cccc(/C=C2/Sc3ccc(C(=O)NCCCN4CCCC4)cc3NC2=O)c1", "inhibition": "active: 60.3%"}
{"smiles": "CCNc1ccc(N=Nc2c(C)n(C)n(-c3ccccc3)c2=O)cc1", "inhibition": "inconclusive: 36.1%"}
{"smiles": "O=C(O)C1CCCCC1C(=O)Nc1nc(-c2ccc(Cl)s2)cs1", "note": "(configuration not stated)", "inhibition": "inconclusive: 27%"}
{"smiles": "COC(=O)c1c(N2C(=O)CC(Sc3ccccc3C(=O)O)C2=O)sc(C)c1C", "note": "(configuration not stated)", "inhibition": "inconclusive: 43.6%"}
{"smiles": "CCCCn1c(SCC(=O)Nc2sc3c(c2C(N)=O)CCC3)nnc1-c1ccccc1", "inhibition": "inconclusive: 39.1%"}
{"smiles": "COc1ccc(COC(=O)NC2CCN(S(=O)(=O)c3ccc(OC)cc3)CC2)cc1", "inhibition": "inactive: -3.07%"}
{"smiles": "CCn1cc(C(=O)OCC(=O)Nc2cccc(S(=O)(=O)N3CCOCC3)c2)c(=O)c2ccc(C)nc21", "inhibition": "inactive: 9.99%"}
